# PubChem BioAssay AID504793, Drosophila RNAi Screening Center – 2011
# Aim: 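Genes required for cells to halt at G2/M after double-strand DNA breaks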 (primary screen)
# System: Drosophila S2R+ cells
# Reagent: long dsRNA against Drosophila genes, about 0.25 µg dsRNA per well
# Time to read-out: 4 days of dsRNA, then 4 hours of drug before read-out
# Challenge: doxorubicin 0.5 µM for 4 hours to cause double-strand breaks, in cells also given a low, harmless dose of dsRNA against nbs to sensitise the assay
# Detection: 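Per-well count of mitotic cells stained for phospho-histone H3 after doxorubicin exposure, used as mitotic index; counts are raw and not normalised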
# Reading the numbers: mitotic cells: higher = more cells in mitosis, weaker G2 arrest
# Rule for the call: 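Genes are called active only when high mitotic counts were reproduced with independent dsRNAs and mitosis was checked for delay without damage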
# Calls: active = confirmed in follow-up tests; inactive = not confirmed
# The screen tested about 23,000 reagents; shown is a random part of those with a known target gene and a result. Over the whole deposit, 62 (0.27%) were called active. 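Calls come from follow-up tests whose scores are not deposited, so confirmed genes may have low counts here; counts are not normalised per plate.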 Raw values are not corrected between plates. Names joined by + are all predicted targets of the reagent.
target gene,DRSC id,"mitotic cells, replicate 1","mitotic cells, replicate 2",call
CG14740,DRSC14960,4,,inactive
CG8563,DRSC10996,4,,inactive
CG14823,DRSC10194,8,,inactive
ppk17,DRSC02252,4,,inactive
CG1233,DRSC08269,4,,inactive
CG1233,DRSC26110,6,,inactive
CG30288,DRSC22005,9,,inactive
CG30288,DRSC29991,8,,inactive
MTPAP,DRSC18585,6,,inactive
MTPAP,DRSC30055,,,inactive
I-t,DRSC16713,3,,inactive
CG33769,DRSC11716,4,,inactive
Muc30E,DRSC01101,8,11,inactive
Muc30E,DRSC28881,5,,inactive
CG3097,DRSC18275,21,,inactive
CG9281,DRSC20179,8,,inactive
CG9281,DRSC24522,4,,inactive
Ugt302K1,DRSC16086,7,,inactive
CG17378,DRSC02616,9,,inactive
CG10747,DRSC02104,8,,inactive
Trpm,DRSC06629,11,,inactive
Trpm,DRSC21566,14,,inactive
Trpm,DRSC27597,13,,inactive
Trpm,DRSC29042,9,,inactive
Nepl8,DRSC02759,2,,inactive
CG5767,DRSC06953,2,,inactive
CG5767,DRSC29980,12,,inactive
TwdlU,DRSC12224,4,,inactive
TwdlU,DRSC29063,6,,inactive
CG30083,DRSC05572,5,,inactive
CG6290,DRSC19979,4,,inactive
CG6290,DRSC25483,6,,inactive
mEFTu1,DRSC06959,9,,inactive
mEFTu1,DRSC29468,10,,inactive
CG4161,DRSC01930,8,,inactive
CG4161,DRSC26020,8,,inactive
CG10347,DRSC19352,6,,inactive
trx,DRSC17089,9,,inactive
trx,DRSC38481,12,,inactive
CG12299,DRSC02158,6,,inactive
CG12299,DRSC23611,8,,inactive
capt,DRSC00676,4,,inactive
capt,DRSC00806,2,,inactive
capt,DRSC27343,7,,inactive
capt,DRSC28196,5,,inactive
Pkcdelta,DRSC19356,17,,inactive
Pkcdelta,DRSC19399,12,,inactive
Pkcdelta,DRSC27039,6,,inactive
Nasp,DRSC27430,6,,inactive
LRP1,DRSC07238,7,,inactive
kud,DRSC11086,8,,inactive
Mst89B,DRSC16748,8,,inactive
ball,DRSC14145,22,,inactive
ball,DRSC26607,7,,inactive
TAF1B,DRSC16001,2,,inactive
CG15549,DRSC15087,19,,inactive
Ttc19,DRSC02474,7,,inactive
CG10993,DRSC19362,9,,inactive
luna,DRSC05253,5,,inactive
luna,DRSC24992,8,,inactive
CG9010,DRSC07320,4,,inactive
Listericin,DRSC07334,3,,inactive
Listericin,DRSC24374,4,,inactive
Mtp,DRSC03216,6,,inactive
Srg3,DRSC08984,4,,inactive
Srg3,DRSC10178,5,,inactive
dimm,DRSC03100,7,,inactive

15 neighbouring records from above, for reference:
target gene,DRSC id,"mitotic cells, replicate 1","mitotic cells, replicate 2",call
CG30288,DRSC29991,8,,inactive
MTPAP,DRSC18585,6,,inactive
MTPAP,DRSC30055,,,inactive
I-t,DRSC16713,3,,inactive
CG33769,DRSC11716,4,,inactive
Muc30E,DRSC01101,8,11,inactive
Muc30E,DRSC28881,5,,inactive
CG3097,DRSC18275,21,,inactive
CG9281,DRSC20179,8,,inactive
CG9281,DRSC24522,4,,inactive
Ugt302K1,DRSC16086,7,,inactive
CG17378,DRSC02616,9,,inactive
CG10747,DRSC02104,8,,inactive
Trpm,DRSC06629,11,,inactive
Trpm,DRSC21566,14,,inactive

Additional records follow.
target gene,DRSC id,"mitotic cells, replicate 1","mitotic cells, replicate 2",call
CG12995,DRSC19515,8,,inactive
CG12995,DRSC27519,5,,inactive
Asap,DRSC06493,4,,inactive
Asap,DRSC06830,4,,inactive
Jon25Biii,DRSC03115,8,,inactive
Jon25Biii,DRSC25069,13,,inactive
Dlic,DRSC19824,72,,inactive
mst,DRSC20582,4,,inactive
Ugt302C1,DRSC15353,6,,inactive
Ugt302C1,DRSC24517,2,,inactive
Prosalpha5,DRSC07514,97,,inactive
CG9837,DRSC16573,6,,inactive
CG9837,DRSC27966,5,,inactive
CG6678,DRSC16092,1,,inactive
CG6678,DRSC27398,2,,inactive
CG10405,DRSC14238,6,,inactive
CG4896,DRSC00671,1,,inactive
CG4896,DRSC24570,4,,inactive
CG6847,DRSC19213,26,,inactive
CG6847,DRSC20009,13,,inactive
Lac,DRSC07452,6,,inactive
CG2218,DRSC15428,8,,inactive
CG2218,DRSC28089,7,,inactive
CG4116,DRSC18348,9,,inactive
CG4116,DRSC29381,5,,inactive
Ntmt,DRSC06624,7,,inactive
Ntmt,DRSC28647,3,,inactive
bves,DRSC20520,6,,inactive
bves,DRSC20555,7,,inactive
CG43317,DRSC15000,5,,inactive
CG14043,DRSC02368,7,,inactive
CG14043,DRSC29925,11,,inactive
GstT2,DRSC06244,8,,inactive
CG32054,DRSC10684,2,,inactive
CG32054,DRSC24449,9,,inactive
CG13857,DRSC14707,6,,inactive
dl,DRSC03521,8,,inactive
dl,DRSC29023,6,,inactive
CG32640 + CG32641,DRSC22885,6,,inactive
CG8516,DRSC16437,5,,inactive
CG6418,DRSC10633,8,,inactive
CG6418,DRSC27621,3,,inactive
ab,DRSC23179,,,inactive
